# Source: PubChem BioAssay AID1259308 (NCATS, 2017)
# Aim: 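Candidate targets for better recombinant protein yield in mammalian cells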 (primary screen)
# Cells: human HEK293 embryonic kidney cells stably expressing firefly luciferase (HEK-CMV-Luc2-Hygro)
# Knock-down reagent: single siRNA against human genes, 0.8 pmol siRNA per well
# Time to read-out: 72 h
# Detection: 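Luciferase light (ONE-Glo) measured on one replicate plate set and viability (CellTiter-Glo) on the other, scaled to a negative control siRNA, with robust z-scores and luciferase per cell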
# Reading the numbers: total luciferase, z-score and total luciferase, % of control: higher = more reporter protein produced; luciferase per cell, z-score: higher = more reporter output per viable cell
# Hit rule: 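Active when the median/MAD z-score for overall luciferase is greater than 3; a gene was taken forward for validation with new siRNAs if at least two of its three siRNAs passed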
# Calls: active = raised luciferase; inactive = no rise
# Here is one part, drawn at random, of about 59,000 deposited reagents. About 1,510 of them (2.6%) count as active. 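Calls use total luciferase alone and ignore viability, so some active siRNAs may act by altering cell number.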 The numbers tell different reagents against one gene apart. Further read-outs or replicates are left out here. Reagent sequences are not shown.
target,reagent no.,"total luciferase, z-score","total luciferase, % of control","luciferase per cell, z-score",call
VIPAS39,1,-1.51,51.8,-0.663,inactive
VIPAS39,2,-0.487,72.2,0.102,inactive
VIPAS39,3,1.41,110,1.3,inactive
EHMT2,1,-0.679,68.4,-0.196,inactive
EHMT2,2,-2.17,38.7,-1.58,inactive
EHMT2,3,1.56,113,0.828,inactive
RNF38,1,-0.0292,81.3,-0.389,inactive
RNF38,2,-0.0875,80.1,0.341,inactive
RNF38,3,0.5,91.8,0.349,inactive
CACNA2D2,1,-0.192,78.1,0.325,inactive
CACNA2D2,2,-1.39,54.3,-1.39,inactive
CACNA2D2,3,-1.55,51.1,-1.48,inactive
CDH19,1,2.45,131,1.56,inactive
CDH19,2,0.781,97.4,0.543,inactive
CDH19,3,0.0158,82.2,-0.327,inactive
MYO1B,1,-0.111,79.7,-0.266,inactive
MYO1B,2,0.257,87,0.0573,inactive
MYO1B,3,-0.393,74.1,0.159,inactive
AIMP1,1,0.189,85.7,-0.353,inactive
AIMP1,2,-0.43,73.3,-0.481,inactive
AIMP1,3,-0.689,68.2,-1.57,inactive
SGMS1,1,-0.549,71,-0.318,inactive
SGMS1,2,-0.362,74.7,-1.17,inactive
SGMS1,3,-1.42,53.7,-1.06,inactive
HYAL3,1,1.79,117,0.52,inactive
HYAL3,2,-1.92,43.8,-2.9,inactive
HYAL3,3,-1.42,53.6,-1.92,inactive

An excerpt from the list above, as a working copy:
target,reagent no.,"total luciferase, z-score","total luciferase, % of control","luciferase per cell, z-score",call
MYO1B,3,-0.393,74.1,0.159,inactive
AIMP1,1,0.189,85.7,-0.353,inactive
AIMP1,2,-0.43,73.3,-0.481,inactive
AIMP1,3,-0.689,68.2,-1.57,inactive
SGMS1,1,-0.549,71,-0.318,inactive
SGMS1,2,-0.362,74.7,-1.17,inactive
SGMS1,3,-1.42,53.7,-1.06,inactive
HYAL3,1,1.79,117,0.52,inactive

More results follow.
target,reagent no.,"total luciferase, z-score","total luciferase, % of control","luciferase per cell, z-score",call
ZNF586,1,-2.24,37.3,-0.882,inactive
ZNF586,2,1.08,103,0.954,inactive
ZNF586,3,-1.21,57.8,-0.451,inactive
TMEM61,1,2.23,126,2.18,inactive
TMEM61,2,1.97,121,2.06,inactive
TMEM61,3,-0.118,79.5,0.434,inactive
RRP12,1,-0.822,65.5,-0.569,inactive
RRP12,2,-1.08,60.4,-1.79,inactive
RRP12,3,1.14,105,0.929,inactive
DUOXA2,1,0.0462,82.8,0.492,inactive
DUOXA2,2,-0.858,64.8,0.283,inactive
DUOXA2,3,0.345,88.7,0.541,inactive
PALS1,1,0.258,87,2.1,inactive
PALS1,2,0.918,100,0.786,inactive
PALS1,3,-2.7,28.1,-3.44,inactive
ARHGAP45,1,-0.88,64.4,-0.668,inactive
ARHGAP45,2,-0.928,63.4,-0.97,inactive
ARHGAP45,3,0.456,90.9,-0.304,inactive
C3orf49,1,0.345,88.7,0.271,inactive
C3orf49,2,0.979,101,0.92,inactive
C3orf49,3,-0.729,67.4,0.0466,inactive
NR4A2,1,0.552,92.9,0.356,inactive
NR4A2,2,0.085,83.6,-0.459,inactive
NR4A2,3,0.159,85,-0.417,inactive
C1RL-AS1,1,1.53,112,1.2,inactive
C1RL-AS1,2,-0.573,70.5,-0.73,inactive
C1RL-AS1,3,-0.342,75.1,-0.149,inactive
SPAG16,1,-1.07,60.6,-0.995,inactive
SPAG16,2,-1.41,53.8,-2.24,inactive
SPAG16,3,-0.12,79.5,-0.111,inactive
